Data as given in PubChem BioAssay AID1508588 (Peter MacCallum Cancer Centre, 2020).

- Aim: 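Knock-downs boosting vemurafenib effects on melanoma cell growth or lactate release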 (primary screen)
- Cells: human WM266.4 melanoma cells (BRAF V600 mutant)
- Reagents: siRNA pool against human genes, 40 nM
- Duration: 96 h from transfection to read-out
- Challenge: vemurafenib 300 nM (about IC25), added 48 h after transfection, for 48 h; comparison arm got DMSO vehicle only
- Read-out: 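Ratios to non-targeting siRNA for cell gain, counted as DAPI nuclei after minus before drug and averaged over two replicates, and for absorbance-read medium lactate per cell; both binned into fold-change classes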
- Direction: cell gain with vemurafenib: higher = more cell gain than with non-targeting siRNA; lactate per cell with vemurafenib: higher = more lactate made per cell
- Active means: 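a knock-down counts as enhancing when its fold-change classes with vehicle and with vemurafenib, taken together, show a stronger drug effect on cell gain or lactate per cell; exact class pairs not stated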
- Calls: active = enhances vemurafenib effect; inactive = no enhancement seen
Here is one part, drawn at random, of about 18,000 deposited reagents. 790 of all reagents (4.4%) count as active. 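Calls rest on a combination of fold-change classes in drug and vehicle arms, not all shown here.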 A number with no mark means an inactive call. The numbers tell different reagents against one gene apart.

gene symbol,pool no.,cell gain with vemurafenib,lactate per cell with vemurafenib
TARS3,1,0.51,0.88
SPRING1,1,1.36,0.64
HSPA4L,1,1.03,1.06
GCA,1,0.14,1.1
SLC6A7,1,0.34,0.2
MRPL49,1,0.57,1.5
LEPROTL1,1,0.11,1.25
DSCAM,1,0.44,1.27
SPANXD,1,-0.07,1.08
SPANXD,2,-0.11,1.25
OR5K3,1,1,0.67
TEX55,1,0.66,1.27
CAPN7,1,0.82,1.43
GUCY2D,1,0.14,0.55
ODAD4,1,-0.02,1.52
GALR2,1,0.89,0.5
ATOSB,1,0.36,1.4
PRAMEF12,1,0.47,0.79
CENPU,1,0.78,1.08
IFI27L2,1,0.03,2.88
CPA2,1,0.22,1.4
KCNA3,1,0.98,0.72
SYCP1,1,0.85,0.29
RASSF5,1,0.75,0.57
CHORDC1,1,0.85,0.44
SPDYA,1,0.43,0.84
ZNF624,1,0.8,0.94
EPB41L4A,1,0.88,0.69
POLR2A,1,0,1.25
PHYHD1,1,0.19 (active),0.94
ADGRB1,1,0.66,1.1
GOLGA8A,1,0.35,0.62
FBXO45,1,0.72,1
PRKAB2,1,0.19,1.04

Just “lactate per cell with vemurafenib”, for 9 of the entries above:
SLC6A7 = 0.2
MRPL49 = 1.5
LEPROTL1 = 1.25
DSCAM = 1.27
SPANXD #1 = 1.08
SPANXD #2 = 1.25
OR5K3 = 0.67
TEX55 = 1.27
CAPN7 = 1.43

Additional entries:
gene symbol,pool no.,cell gain with vemurafenib,lactate per cell with vemurafenib
ZNF625,1,0.69,1.04
OR2T29,1,0.46,0.73
HELB,1,1.32,0.8
PTGER2,1,0.34,1.16
ITSN1,1,0.3,0.35
MYRF,1,0.82,1.1
OR4F21,1,0.68,0.95
RPL36A,1,0.38,1.07
SIPA1,1,0.77,1.1
FMNL2,1,1.11,0.41
ARHGDIG,1,0.89,1.54
SLC35F1,1,0.75,1.23
APLP1,1,0.86,0.95
FUZ,1,0.63,1.15
UPK3B,1,0.48,1.52
SLC25A42,1,0.61,1.27
IL17RC,1,0.5,0.86
H1-1,1,0.27,0.6
ADCY1,1,0.67,0.71
OR52N5,1,0.43,0.81
TAF11,1,0.95,0.72
TMEM167A,1,0.14,3.04
KCNK18,1,0.68 (active),0.18
UBALD1,1,0.17,1.62
EDA2R,1,0.54,1.9
FAM78B,1,0.77,0.92
CGB3,1,0.55,1.04
AMY1B,1,0.49,0.84
NRBF2,1,0.65,1.15
MYO18B,1,0.78,0.64
ALDH4A1,1,0.76,0.86
FNTA,1,0.53,1.87
IDI1,1,0.92,0.32
SLC31A1,1,0.48,1.3
TREX1,1,0.13,0.9
CUL4A,1,0.8,0.72
SIAH2,1,0.89,1.12
RNF187,1,0.68,0.92
CNIH4,1,0.42,1.68
IFNA13,1,0.5,1.81
ZNF428,1,1.27,0.7
LCTL,1,0.56,1.13
ERBIN,1,0.38,0.72
PRSS33,1,0.96,1.15
FRG1,1,0.46 (active),0.47
PCDHGB6,1,1.01,0.6
CEP95,1,0.61,0.8
RHOC,1,0.36,1.75
CST9L,1,0.21,1.23
HLX,1,0.15,1.89
